Data on 1 substance can be found in PMC5992168.

Results are given in words; binding and its absence hold for the method and conditions named. In cells and extracts the contact can be indirect.

Test [1] addresses T1, GLAST, endogenous mouse (mouse (endogenous in primary astrocytes)) (UniProt P56564).
T1 sequence: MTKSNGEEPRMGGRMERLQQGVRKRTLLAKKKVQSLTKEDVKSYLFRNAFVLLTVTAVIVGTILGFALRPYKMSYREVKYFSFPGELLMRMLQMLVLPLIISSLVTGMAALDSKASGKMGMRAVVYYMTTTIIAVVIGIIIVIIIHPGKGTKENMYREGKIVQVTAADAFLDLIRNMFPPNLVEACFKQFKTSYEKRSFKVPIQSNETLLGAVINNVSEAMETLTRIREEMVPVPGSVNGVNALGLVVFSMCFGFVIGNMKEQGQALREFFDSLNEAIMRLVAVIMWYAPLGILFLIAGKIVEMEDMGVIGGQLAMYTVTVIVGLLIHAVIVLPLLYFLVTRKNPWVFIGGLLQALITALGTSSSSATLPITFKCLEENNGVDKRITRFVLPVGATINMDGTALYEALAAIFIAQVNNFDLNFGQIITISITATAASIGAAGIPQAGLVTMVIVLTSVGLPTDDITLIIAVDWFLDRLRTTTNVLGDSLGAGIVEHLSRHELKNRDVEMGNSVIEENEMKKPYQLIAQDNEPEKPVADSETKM
Kind of test: FRET or BRET; spectral FRET in fixed mouse primary astrocytes; immunostained with primary and AF488/Cy3 secondary antibodies; R/G ratio; also cells treated 16 hours with vehicle or 1 uM DAPT. (In general: Bioluminescence resonance energy transfer reports proximity on the nanometre scale.)

The target of test [2] is T2, EAAT3, endogenous mouse (mouse (endogenous in primary neurons)) (UniProt P51906).
T2 sequence: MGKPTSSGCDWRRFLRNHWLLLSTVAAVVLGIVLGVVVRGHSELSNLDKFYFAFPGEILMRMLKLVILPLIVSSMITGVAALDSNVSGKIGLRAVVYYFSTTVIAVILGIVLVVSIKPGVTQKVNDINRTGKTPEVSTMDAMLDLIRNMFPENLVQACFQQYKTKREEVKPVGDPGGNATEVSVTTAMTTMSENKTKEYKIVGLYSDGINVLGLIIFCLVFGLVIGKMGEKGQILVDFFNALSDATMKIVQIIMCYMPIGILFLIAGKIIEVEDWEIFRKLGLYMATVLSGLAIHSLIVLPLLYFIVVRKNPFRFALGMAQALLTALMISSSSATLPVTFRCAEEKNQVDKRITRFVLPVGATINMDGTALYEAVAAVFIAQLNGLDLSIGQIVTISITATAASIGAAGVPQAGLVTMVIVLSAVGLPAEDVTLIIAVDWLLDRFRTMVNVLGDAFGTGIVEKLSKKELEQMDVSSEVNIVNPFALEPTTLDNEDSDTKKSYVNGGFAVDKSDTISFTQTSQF
Kind of test: FRET or BRET; spectral FRET in fixed mouse primary neurons; immunostained with primary and AF488/Cy3 secondary antibodies; R/G ratio.

On to “PS1 C-terminal fragment (PS1-CTF), endogenous mouse (from UniProt P49769 293-467) (domain or fragment)”, for which the binding result in test [1] and in test [2] was “no binding” each time.
